Test results reported in PMC10865846.
No constants are given. Whether binding was seen depends on the method and setting. In cells and extracts the contact can be indirect. Here binding means that the protein was enriched with, or labelled near, the bait; the list need not be complete.

Target: Strep-NSP8 (SARS-CoV-2 non-structural protein 8) (SARS-CoV-2) (UniProt P0DTD1)
Assay: affinity purification with mass spectrometry

## proteasome 26S subunit, ATPase 4 (PSMC4) (from UniProt P43686 1-418)
  binding: binds
